Test results from the supplement of paper PMC10060354, “Discovery of a small molecule ligand of FRS2 that inhibits invasion and tumor growth” (Cellular Oncology, 2022).
Many values rest on one well or one pass, so single values are uncertain.

Sequences of proteins named here, by UniProt entry; tags and fusion partners are left off. A change or cut given only in a name is not applied to a line headed by its entry.
UniProt O43237, whole entry: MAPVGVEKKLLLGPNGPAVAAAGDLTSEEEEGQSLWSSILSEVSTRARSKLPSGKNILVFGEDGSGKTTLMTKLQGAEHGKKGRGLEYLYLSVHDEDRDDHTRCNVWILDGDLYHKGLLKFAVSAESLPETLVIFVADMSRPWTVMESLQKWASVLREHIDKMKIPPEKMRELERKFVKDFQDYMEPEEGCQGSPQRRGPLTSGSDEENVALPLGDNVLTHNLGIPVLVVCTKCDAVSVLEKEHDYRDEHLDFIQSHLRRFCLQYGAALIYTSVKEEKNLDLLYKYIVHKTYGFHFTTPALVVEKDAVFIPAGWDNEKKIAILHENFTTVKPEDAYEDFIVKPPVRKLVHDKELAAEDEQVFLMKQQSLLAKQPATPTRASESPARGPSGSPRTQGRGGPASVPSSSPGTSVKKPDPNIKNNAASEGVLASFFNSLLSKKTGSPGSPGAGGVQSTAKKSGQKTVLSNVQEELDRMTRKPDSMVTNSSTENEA
UniProt Q9BPW8: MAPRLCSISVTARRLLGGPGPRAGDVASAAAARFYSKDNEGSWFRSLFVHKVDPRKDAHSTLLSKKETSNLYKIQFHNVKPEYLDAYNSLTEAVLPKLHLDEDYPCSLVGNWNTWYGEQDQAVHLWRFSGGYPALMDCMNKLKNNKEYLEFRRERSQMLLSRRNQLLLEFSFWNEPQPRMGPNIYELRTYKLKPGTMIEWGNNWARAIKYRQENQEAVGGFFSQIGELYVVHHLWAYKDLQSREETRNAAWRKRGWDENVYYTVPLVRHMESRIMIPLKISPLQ
UniProt P09429: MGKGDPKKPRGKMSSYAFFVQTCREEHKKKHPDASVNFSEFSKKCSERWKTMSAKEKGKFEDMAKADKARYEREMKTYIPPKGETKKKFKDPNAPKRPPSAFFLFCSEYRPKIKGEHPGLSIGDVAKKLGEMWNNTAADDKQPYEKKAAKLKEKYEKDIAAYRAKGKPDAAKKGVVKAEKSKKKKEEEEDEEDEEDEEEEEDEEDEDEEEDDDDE
UniProt Q9HAV7: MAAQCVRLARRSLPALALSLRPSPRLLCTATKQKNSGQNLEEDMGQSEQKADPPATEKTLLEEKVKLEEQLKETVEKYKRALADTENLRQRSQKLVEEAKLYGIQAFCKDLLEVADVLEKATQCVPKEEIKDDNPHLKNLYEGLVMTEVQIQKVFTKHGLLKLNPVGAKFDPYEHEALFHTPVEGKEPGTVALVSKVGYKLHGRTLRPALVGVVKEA
UniProt P42566: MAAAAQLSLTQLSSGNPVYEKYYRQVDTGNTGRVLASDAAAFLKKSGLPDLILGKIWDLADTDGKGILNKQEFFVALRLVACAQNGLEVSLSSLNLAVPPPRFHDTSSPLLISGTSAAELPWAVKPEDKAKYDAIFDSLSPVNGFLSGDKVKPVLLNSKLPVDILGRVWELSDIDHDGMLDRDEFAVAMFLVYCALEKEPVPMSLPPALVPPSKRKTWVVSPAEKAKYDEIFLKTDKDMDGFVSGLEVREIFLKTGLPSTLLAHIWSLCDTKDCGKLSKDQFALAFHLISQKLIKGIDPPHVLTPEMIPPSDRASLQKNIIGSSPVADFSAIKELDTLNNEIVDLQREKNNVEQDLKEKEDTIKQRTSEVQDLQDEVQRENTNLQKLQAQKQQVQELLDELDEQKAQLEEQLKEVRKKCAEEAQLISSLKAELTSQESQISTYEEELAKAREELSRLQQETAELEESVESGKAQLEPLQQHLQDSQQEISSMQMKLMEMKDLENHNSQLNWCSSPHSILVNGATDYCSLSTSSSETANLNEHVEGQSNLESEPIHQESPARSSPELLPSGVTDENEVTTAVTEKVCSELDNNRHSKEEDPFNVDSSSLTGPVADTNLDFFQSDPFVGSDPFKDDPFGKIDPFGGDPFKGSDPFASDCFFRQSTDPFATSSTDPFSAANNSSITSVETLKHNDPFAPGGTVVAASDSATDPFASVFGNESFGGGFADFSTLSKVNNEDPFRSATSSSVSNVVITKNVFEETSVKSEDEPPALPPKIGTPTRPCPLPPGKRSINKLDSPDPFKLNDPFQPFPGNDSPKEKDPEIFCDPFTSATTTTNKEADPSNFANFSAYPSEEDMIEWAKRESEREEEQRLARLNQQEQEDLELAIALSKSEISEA
UniProt Q9BZL1: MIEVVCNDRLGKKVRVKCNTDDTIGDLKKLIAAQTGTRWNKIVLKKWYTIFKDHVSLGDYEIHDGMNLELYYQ
UniProt O15061: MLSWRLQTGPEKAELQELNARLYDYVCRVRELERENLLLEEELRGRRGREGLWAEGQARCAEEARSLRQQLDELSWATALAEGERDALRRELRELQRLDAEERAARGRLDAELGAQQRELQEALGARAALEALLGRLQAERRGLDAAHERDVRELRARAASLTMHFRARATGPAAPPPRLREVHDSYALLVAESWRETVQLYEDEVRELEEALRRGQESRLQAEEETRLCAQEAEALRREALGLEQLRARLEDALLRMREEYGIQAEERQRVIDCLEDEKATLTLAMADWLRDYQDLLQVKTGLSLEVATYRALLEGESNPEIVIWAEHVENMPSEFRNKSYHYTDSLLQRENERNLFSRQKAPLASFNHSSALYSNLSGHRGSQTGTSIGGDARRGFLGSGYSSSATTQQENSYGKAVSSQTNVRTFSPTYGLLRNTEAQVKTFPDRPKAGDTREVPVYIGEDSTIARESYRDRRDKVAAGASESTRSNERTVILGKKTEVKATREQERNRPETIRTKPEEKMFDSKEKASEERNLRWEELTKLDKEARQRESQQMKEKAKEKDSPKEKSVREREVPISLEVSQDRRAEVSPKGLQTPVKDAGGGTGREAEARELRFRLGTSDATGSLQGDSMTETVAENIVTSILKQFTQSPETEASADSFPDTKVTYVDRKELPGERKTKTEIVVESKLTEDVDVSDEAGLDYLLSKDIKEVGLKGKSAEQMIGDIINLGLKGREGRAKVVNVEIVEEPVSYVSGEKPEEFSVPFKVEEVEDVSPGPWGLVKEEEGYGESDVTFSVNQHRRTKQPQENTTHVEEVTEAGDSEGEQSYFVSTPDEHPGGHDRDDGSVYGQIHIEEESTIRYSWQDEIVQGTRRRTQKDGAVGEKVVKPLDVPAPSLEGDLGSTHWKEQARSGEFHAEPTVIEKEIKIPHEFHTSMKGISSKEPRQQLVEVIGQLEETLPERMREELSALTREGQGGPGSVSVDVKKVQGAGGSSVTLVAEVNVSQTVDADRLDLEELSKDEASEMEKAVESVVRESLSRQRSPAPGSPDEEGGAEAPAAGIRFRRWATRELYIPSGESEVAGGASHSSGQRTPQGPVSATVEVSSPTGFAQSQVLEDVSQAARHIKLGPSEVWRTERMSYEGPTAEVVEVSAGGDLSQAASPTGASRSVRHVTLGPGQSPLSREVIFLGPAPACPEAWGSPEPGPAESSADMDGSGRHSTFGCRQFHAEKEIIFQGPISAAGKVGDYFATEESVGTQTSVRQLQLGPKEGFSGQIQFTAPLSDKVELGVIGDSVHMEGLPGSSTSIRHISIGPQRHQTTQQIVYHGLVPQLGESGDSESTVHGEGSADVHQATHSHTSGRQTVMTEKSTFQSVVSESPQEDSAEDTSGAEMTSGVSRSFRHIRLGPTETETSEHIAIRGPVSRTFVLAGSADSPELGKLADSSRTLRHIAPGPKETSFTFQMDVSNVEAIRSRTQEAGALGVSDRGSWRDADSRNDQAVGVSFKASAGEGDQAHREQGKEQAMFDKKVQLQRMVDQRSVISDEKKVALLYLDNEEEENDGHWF
UniProt Q9H446: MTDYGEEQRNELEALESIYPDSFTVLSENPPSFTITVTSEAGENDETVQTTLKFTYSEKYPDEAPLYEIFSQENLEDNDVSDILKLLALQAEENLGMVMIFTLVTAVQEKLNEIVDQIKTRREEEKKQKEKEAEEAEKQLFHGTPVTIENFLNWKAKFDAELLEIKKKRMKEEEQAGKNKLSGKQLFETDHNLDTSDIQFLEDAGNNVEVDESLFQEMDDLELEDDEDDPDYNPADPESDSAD
UniProt Q6P996: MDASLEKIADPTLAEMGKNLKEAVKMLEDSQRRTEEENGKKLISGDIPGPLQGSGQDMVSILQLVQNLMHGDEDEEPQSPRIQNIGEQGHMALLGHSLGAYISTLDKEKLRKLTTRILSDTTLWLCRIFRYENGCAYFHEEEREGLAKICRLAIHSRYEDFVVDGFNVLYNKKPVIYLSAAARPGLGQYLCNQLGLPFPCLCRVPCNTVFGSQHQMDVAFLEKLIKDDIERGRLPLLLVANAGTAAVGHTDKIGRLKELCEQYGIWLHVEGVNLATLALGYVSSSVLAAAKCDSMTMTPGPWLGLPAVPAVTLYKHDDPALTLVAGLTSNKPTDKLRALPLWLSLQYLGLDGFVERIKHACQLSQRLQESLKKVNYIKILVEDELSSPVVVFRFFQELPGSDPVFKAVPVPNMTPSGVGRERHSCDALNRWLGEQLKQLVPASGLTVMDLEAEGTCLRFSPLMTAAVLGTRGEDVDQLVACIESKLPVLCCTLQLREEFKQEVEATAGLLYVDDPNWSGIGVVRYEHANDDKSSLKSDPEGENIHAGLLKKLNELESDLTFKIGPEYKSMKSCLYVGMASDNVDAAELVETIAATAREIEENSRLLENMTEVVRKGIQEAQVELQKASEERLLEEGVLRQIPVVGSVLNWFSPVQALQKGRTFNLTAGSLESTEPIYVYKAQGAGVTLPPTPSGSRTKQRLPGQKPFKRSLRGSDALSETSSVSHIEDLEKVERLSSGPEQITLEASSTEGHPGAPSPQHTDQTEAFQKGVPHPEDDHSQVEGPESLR
UniProt Q15031: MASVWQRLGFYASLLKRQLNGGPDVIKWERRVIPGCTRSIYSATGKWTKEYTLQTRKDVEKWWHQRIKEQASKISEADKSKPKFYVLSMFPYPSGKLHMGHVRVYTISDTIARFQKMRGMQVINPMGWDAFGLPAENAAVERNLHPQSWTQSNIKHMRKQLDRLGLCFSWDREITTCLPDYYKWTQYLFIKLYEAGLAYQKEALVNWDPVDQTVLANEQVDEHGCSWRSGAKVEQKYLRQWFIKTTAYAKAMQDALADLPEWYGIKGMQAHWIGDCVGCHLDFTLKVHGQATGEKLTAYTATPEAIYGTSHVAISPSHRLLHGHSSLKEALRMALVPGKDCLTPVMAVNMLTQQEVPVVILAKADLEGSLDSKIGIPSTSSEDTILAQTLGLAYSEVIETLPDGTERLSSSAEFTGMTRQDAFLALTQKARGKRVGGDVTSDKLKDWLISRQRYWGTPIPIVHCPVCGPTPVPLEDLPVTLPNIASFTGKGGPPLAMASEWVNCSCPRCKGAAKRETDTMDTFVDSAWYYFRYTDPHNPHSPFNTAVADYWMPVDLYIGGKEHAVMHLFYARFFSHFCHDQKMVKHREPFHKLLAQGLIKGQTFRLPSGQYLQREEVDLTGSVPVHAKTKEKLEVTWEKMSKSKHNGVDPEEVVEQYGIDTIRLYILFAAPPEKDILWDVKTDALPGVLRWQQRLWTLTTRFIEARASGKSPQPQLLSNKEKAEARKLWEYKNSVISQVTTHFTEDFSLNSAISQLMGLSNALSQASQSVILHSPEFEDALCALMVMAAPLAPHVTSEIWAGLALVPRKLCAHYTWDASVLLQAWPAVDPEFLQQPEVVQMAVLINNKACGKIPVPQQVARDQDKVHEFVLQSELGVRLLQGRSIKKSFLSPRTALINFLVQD
UniProt Q96EB1: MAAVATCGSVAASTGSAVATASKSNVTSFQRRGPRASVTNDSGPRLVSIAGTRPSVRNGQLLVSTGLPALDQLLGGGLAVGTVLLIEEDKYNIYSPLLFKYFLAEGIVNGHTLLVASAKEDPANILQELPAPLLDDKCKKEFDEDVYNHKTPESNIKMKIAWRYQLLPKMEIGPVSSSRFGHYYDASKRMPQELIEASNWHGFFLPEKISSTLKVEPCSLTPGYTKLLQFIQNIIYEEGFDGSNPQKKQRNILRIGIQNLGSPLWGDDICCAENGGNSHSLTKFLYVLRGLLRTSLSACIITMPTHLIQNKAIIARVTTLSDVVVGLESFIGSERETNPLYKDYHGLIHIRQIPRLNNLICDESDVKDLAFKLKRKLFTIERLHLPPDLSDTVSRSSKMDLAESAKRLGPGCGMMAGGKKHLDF
UniProt P52565: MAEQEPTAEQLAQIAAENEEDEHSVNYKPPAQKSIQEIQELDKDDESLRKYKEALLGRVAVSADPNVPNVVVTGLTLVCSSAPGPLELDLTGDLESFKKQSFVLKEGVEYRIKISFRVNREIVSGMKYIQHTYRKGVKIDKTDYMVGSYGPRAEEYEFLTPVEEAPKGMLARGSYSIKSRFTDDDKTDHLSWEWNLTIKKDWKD
UniProt Q6PH85: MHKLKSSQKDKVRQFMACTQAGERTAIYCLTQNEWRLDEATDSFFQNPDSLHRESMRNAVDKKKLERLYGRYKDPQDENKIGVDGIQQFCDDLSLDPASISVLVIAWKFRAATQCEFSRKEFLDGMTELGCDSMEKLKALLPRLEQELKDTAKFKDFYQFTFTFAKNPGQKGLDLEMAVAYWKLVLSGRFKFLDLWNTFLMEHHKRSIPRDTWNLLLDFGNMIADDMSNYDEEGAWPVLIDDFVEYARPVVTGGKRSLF

Compound: [O-][N+](C(C1=C(C(O)=C2)NC(C(C=C3)=CC=C3Cl)C4C1C=CC4)=C2Cl)=O
Experiment: melting temperature shift (compound 7 minus DMSO); higher = compound stabilises the protein
Settings: 10 µM
Method: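 Thermal proteome profiling (TMT mass spectrometry) in intact DAOY medulloblastoma cells or DAOY lysates treated with 10 µM compound 7 or DMSO, heated at 10 temperatures from 40.5 to 73.8 °C for 3 min. Melting curves were fitted with the Bioconductor TPP package, and the melting point difference between compound and vehicle is reported per protein (single curve per condition).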

[1] = system: DAOY cell lysate, treatment time: 20 min, 4 °C
[2] = system: intact DAOY cells, treatment time: 90 min, 37 °C

Target	melting temperature shift [1] [°C]	melting temperature shift [2] [°C]
CDC25C (UniProt P30307)	1.34	-0.117
TMCO1 (UniProt Q9UM00)	1.46	0.329
POM121C (UniProt A8CG34)	-0.481	
BOP1 (UniProt Q14137)	0.472	1.83
UniProt P05120	-0.873	0.702
DYNC1LI2 (UniProt O43237)	-0.33	-0.412
GEMIN5 (UniProt Q8TEQ6)	-0.756	-0.547
HTRA2 (UniProt O43464)	-0.836	-0.674
RPP30 (UniProt P78346)	-1.26	-0.562
CXORF56 (UniProt Q9H5V9)	-0.207	0.425
RBM4 (UniProt Q9BWF3)	1.38	0.468
STRAP (UniProt Q9Y3F4)	-0.316	0.149
SENP6 (UniProt Q9GZR1)	0.769	
BSDC1 (UniProt Q9NW68)	2.42	0.356
ESYT1 (UniProt Q9BSJ8)	0.951	-0.812
PMM2 (UniProt O15305)	-0.409	-0.782
AK2 (UniProt P54819)	-0.0984	-1.32
UniProt Q8N1G0	0.34	-0.482
SHMT2 (UniProt P34897)	0.295	-0.625
UniProt Q6K0P9		-0.942
SYNJ2 (UniProt O15056)	-0.388	-0.216
NIPSNAP1 (UniProt Q9BPW8)	-0.582	0.581
PABPC1 (UniProt P11940)	0.122	0.0605

Target	melting temperature shift [1] [°C]	melting temperature shift [2] [°C]
HMGB1 (UniProt P09429)	0.271	
PAFAH1B2 (UniProt P68402)	0.177	0.123
GRPEL1 (UniProt Q9HAV7)	0.844	0.0647
MCCC2 (UniProt Q9HCC0)	1.37	1.23
STX12 (UniProt Q86Y82)	1.85	
UniProt Q96FN4	0.901	
EPS15 (UniProt P42566)	-0.706	0.53
HCCS (UniProt P53701)	1.72	0.0149
MTCH2 (UniProt Q9Y6C9)	2.15	0.0531
UniProt Q96A05		1.01
TLN2 (UniProt Q9Y4G6)	-0.418	-0.165
SYPL1 (UniProt Q16563)	0.348	
G6PD (UniProt P11413)	-0.319	-0.546
PLD3 (UniProt Q8IV08)	-0.675	-0.362
SMU1 (UniProt Q2TAY7)	0.291	0.39
UBL5 (UniProt Q9BZL1)	0.72	-0.066
EPRS (UniProt P07814)	-1	-0.497
UniProt Q13131	-0.0567	-0.402
ADI1 (UniProt Q9BV57)	-1.14	0.241
ANAPC10 (UniProt Q9UM13)	0.0443	-0.416
UniProt Q8WV07	-0.409	
UniProt O14529		-0.786
BAX (UniProt Q07812)	2.59	

Target	melting temperature shift [1] [°C]	melting temperature shift [2] [°C]
UniProt Q9UGU0	3.43	-0.45
PPP1R8 (UniProt Q12972)	0.0631	-1.03
UniProt O15481		-0.428
UniProt Q71U36	0.289	-0.497
SRSF9 (UniProt Q13242)	0.437	0.0904
ZC3HAV1 (UniProt Q7Z2W4)	0.2	0.42
INTS7 (UniProt Q9NVH2)	-1.81	-0.156
EARS2 (UniProt Q5JPH6)	-1.85	-1.69
UniProt O15061	0.625	
COQ9 (UniProt O75208)	1.39	1
XPO6 (UniProt Q96QU8)	-0.845	-0.622
NAA10 (UniProt P41227)	0.27	-0.517
UniProt Q99576		2.02
UniProt P49795	-1.12	
ZC3H14 (UniProt Q6PJT7)	1.08	-1.09
ANKRD27 (UniProt Q96NW4)	-0.0497	
TRAPPC8 (UniProt Q9Y2L5)	-0.303	0.218
PGLS (UniProt O95336)	-1.18	0.691
CALCOCO1 (UniProt Q9P1Z2)	-0.482	0.275
UniProt Q92901		-0.587
TRUB2 (UniProt O95900)	-3.71	-0.78
CLIC4 (UniProt Q9Y696)	-0.235	0.0554
GEMIN4 (UniProt P57678)	-1.92	-1.24

Target	melting temperature shift [1] [°C]	melting temperature shift [2] [°C]
UniProt Q9BXP2	0.427	0.385
RWDD1 (UniProt Q9H446)	0.83	0.704
FAHD2A (UniProt Q96GK7)	-1.56	-0.0772
PDXDC1 (UniProt Q6P996)	-0.588	-0.286
PPP4C (UniProt P60510)	-1.46	0.689
DAB2 (UniProt P98082)	-1.03	-0.0489
ACO2 (UniProt Q99798)	0.435	-0.368
FUT8 (UniProt Q9BYC5)	1.17	0.533
MPST (UniProt P25325)	0.00511	2.05
RPS7 (UniProt P62081)	0.562	-0.679
UniProt Q9NZR1	0.783	3.97
UniProt Q9Y5K3		-0.458
LARS2 (UniProt Q15031)	-1.57	-0.969
ELP4 (UniProt Q96EB1)	-0.0134	1.28
UniProt O75896	0.991	
SLC25A11 (UniProt Q02978)	0.272	
BANF1 (UniProt O75531)	0.404	1.08
YWHAH (UniProt Q04917)	0.11	0.294
UniProt Q16623	-1.25	
UniProt Q58EX7	-0.183	
UniProt Q6P9F7		-1.93
ZGPAT (UniProt Q8N5A5)	1.33	1.2
HIST1H4A (UniProt P62805)		0.108

Target	melting temperature shift [1] [°C]	melting temperature shift [2] [°C]
KPNA4 (UniProt O00629)	-0.688	1.7
UniProt Q9Y536		0.238
IGF2BP1 (UniProt Q9NZI8)	0.115	0.0738
HSP90AA1 (UniProt P07900)	-0.71	-0.253
PI4K2B (UniProt Q8TCG2)	0.242	
USP28 (UniProt Q96RU2)	-0.782	-1.12
ITFG2 (UniProt Q969R8)	-0.348	1.97
RNF220 (UniProt Q5VTB9)	-1	5.59
MINA (UniProt Q8IUF8)	0.906	-0.383
UniProt Q9UN81	0.321	2.74
UniProt Q53HV7	-1.6	-0.0941
ASAP2 (UniProt O43150)	0.584	
RBFOX2 (UniProt O43251)	-0.0281	-0.701
UBE2E2 (UniProt Q96LR5)	-1.13	-1.13
METTL1 (UniProt Q9UBP6)	-1.05	-0.252
NDUFB3 (UniProt O43676)	2.14	-0.378
CLNS1A (UniProt P54105)	1.53	0.75
ARHGDIA (UniProt P52565)	-1.19	0.404
UniProt Q6PH85		-0.45

Already shown: entries from further up.
Target	melting temperature shift [1] [°C]	melting temperature shift [2] [°C]
MPST (UniProt P25325)	0.00511	2.05
RPS7 (UniProt P62081)	0.562	-0.679
UniProt Q9NZR1	0.783	3.97
UniProt Q9Y5K3		-0.458
LARS2 (UniProt Q15031)	-1.57	-0.969
ELP4 (UniProt Q96EB1)	-0.0134	1.28
UniProt O75896	0.991	
SLC25A11 (UniProt Q02978)	0.272	
BANF1 (UniProt O75531)	0.404	1.08
YWHAH (UniProt Q04917)	0.11	0.294
UniProt Q16623	-1.25	
UniProt Q58EX7	-0.183	
UniProt Q6P9F7		-1.93
ZGPAT (UniProt Q8N5A5)	1.33	1.2
HIST1H4A (UniProt P62805)		0.108
KPNA4 (UniProt O00629)	-0.688	1.7
UniProt Q9Y536		0.238
IGF2BP1 (UniProt Q9NZI8)	0.115	0.0738
HSP90AA1 (UniProt P07900)	-0.71	-0.253
PI4K2B (UniProt Q8TCG2)	0.242	
USP28 (UniProt Q96RU2)	-0.782	-1.12
ITFG2 (UniProt Q969R8)	-0.348	1.97
RNF220 (UniProt Q5VTB9)	-1	5.59
MINA (UniProt Q8IUF8)	0.906	-0.383
UniProt Q9UN81	0.321	2.74
UniProt Q53HV7	-1.6	-0.0941
ASAP2 (UniProt O43150)	0.584	
RBFOX2 (UniProt O43251)	-0.0281	-0.701
UBE2E2 (UniProt Q96LR5)	-1.13	-1.13
METTL1 (UniProt Q9UBP6)	-1.05	-0.252
NDUFB3 (UniProt O43676)	2.14	-0.378
CLNS1A (UniProt P54105)	1.53	0.75
ARHGDIA (UniProt P52565)	-1.19	0.404
UniProt Q6PH85		-0.45
